Measured values: PMC7181646
These are yes or no findings as the source states them, for the method shown. Binding seen in cells or lysates may run through a third protein. Some binding calls cover weakened binding; strength is not graded here.

By UniProt entry, the sequences of proteins in these tests, tags left out. Where a name states a change or a piece, a line headed by the entry shows the natural chain unless it says otherwise.
UniProt P40763: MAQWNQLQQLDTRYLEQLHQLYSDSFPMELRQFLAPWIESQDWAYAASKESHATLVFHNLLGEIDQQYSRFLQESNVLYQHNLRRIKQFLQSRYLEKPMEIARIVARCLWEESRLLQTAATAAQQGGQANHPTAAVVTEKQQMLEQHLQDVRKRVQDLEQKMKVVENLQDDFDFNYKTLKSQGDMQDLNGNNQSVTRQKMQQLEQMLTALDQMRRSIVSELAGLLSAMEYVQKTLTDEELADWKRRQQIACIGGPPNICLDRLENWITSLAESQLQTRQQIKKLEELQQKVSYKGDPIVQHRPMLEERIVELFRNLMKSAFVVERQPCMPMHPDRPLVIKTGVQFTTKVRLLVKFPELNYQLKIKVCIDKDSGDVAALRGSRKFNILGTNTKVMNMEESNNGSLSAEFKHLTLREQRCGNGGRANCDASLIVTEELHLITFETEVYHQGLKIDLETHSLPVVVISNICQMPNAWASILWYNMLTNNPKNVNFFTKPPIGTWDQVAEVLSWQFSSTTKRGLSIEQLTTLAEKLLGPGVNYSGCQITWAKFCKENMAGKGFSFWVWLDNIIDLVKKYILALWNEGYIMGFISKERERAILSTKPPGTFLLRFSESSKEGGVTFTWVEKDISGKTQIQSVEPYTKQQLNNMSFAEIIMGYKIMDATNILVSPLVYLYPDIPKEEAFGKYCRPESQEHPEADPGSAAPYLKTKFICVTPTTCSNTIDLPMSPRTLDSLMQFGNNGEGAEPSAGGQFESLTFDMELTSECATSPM

T1: B Cell Lymphoma-9 (BCL9) (human (endogenous in DCIS.COM and SUM225)) (UniProt O00512)
T1 sequence: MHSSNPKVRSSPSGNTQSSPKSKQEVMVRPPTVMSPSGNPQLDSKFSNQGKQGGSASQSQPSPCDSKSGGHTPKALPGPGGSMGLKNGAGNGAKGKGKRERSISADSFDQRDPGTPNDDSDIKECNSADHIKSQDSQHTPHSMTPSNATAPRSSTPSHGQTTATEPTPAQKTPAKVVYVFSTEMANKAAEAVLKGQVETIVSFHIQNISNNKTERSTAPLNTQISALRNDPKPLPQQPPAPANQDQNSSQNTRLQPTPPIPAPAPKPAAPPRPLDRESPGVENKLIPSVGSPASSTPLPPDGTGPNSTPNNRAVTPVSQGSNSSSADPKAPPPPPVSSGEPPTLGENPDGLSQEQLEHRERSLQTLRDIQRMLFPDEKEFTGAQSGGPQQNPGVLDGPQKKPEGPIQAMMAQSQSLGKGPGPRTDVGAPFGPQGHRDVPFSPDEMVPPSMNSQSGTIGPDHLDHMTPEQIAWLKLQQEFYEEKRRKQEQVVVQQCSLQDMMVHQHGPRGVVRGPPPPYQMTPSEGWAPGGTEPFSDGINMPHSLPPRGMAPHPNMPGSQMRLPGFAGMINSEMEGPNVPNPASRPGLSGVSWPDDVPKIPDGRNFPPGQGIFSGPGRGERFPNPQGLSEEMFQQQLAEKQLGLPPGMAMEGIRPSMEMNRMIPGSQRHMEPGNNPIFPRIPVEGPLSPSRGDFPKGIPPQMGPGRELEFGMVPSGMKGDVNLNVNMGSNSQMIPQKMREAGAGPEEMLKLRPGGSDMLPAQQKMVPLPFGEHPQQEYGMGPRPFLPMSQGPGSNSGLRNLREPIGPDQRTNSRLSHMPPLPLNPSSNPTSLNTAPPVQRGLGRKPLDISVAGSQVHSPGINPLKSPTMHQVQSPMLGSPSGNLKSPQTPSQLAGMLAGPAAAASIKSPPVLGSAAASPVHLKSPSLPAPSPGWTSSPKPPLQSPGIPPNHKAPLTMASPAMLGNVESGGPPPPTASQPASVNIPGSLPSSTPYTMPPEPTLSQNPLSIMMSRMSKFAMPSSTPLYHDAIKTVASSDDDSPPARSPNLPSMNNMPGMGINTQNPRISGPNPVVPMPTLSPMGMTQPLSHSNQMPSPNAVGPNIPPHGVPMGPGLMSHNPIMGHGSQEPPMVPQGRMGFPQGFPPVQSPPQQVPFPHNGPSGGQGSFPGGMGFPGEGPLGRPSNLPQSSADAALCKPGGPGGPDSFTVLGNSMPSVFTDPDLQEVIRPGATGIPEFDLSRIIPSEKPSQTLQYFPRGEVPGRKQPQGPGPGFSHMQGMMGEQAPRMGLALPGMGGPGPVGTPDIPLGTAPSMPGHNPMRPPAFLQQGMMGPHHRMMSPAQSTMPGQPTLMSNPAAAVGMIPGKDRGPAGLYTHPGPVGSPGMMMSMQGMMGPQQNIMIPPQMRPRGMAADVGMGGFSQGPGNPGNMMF

T2: BCL9 overexpression (PCDH-BCL9) (UniProt O00512)
T2 sequence: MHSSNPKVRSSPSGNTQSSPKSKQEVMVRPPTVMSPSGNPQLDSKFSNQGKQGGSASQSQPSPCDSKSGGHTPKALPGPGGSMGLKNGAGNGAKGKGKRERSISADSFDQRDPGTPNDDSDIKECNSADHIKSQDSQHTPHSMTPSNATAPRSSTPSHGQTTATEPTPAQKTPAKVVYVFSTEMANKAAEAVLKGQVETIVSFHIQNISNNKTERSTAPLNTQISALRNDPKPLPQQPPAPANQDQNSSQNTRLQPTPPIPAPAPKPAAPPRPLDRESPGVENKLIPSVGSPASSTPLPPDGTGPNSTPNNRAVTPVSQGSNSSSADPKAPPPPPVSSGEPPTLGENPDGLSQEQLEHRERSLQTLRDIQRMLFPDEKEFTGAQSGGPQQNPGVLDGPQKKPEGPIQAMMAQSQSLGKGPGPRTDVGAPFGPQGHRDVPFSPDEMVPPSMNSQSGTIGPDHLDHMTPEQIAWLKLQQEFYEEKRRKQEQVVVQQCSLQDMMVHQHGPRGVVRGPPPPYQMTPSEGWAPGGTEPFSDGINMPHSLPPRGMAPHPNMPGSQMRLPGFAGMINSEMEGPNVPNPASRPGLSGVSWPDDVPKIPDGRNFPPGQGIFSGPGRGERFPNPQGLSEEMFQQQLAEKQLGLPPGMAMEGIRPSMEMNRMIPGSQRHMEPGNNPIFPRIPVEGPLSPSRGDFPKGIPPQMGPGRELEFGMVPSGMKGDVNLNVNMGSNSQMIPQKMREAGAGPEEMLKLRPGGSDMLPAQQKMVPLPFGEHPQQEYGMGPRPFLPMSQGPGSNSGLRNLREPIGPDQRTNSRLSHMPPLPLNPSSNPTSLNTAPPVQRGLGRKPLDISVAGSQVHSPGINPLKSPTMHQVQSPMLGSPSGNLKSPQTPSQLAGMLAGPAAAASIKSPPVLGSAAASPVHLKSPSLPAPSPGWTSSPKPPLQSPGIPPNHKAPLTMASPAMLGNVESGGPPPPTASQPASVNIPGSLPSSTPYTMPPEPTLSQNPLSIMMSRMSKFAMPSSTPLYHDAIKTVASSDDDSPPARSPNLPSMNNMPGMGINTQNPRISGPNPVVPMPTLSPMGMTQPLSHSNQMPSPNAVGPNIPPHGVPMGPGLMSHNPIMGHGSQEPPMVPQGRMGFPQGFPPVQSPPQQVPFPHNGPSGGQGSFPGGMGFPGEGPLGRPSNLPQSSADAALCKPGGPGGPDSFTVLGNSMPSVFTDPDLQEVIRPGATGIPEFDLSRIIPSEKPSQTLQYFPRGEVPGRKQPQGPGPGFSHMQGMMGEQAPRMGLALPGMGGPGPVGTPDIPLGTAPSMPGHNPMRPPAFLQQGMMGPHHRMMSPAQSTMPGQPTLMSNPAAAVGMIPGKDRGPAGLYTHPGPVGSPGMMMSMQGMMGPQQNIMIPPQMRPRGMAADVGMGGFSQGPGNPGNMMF


What was measured:
[1] = biological target: T1, B Cell Lymphoma-9 (BCL9) (human (endogenous in DCIS.COM and SUM225)); experiment: co-IP; whole-cell extracts of DCIS.COM and SUM225; immunoprecipitation with anti-BCL9 or (reverse) anti-STAT3 antibody, control IgG; Western blot
[2] = biological target: T2, BCL9 overexpression (PCDH-BCL9); experiment: proximity ligation; Duolink PLA in 293T cells transfected with BCL9 overexpression and a STAT3 construct; signals quantified in three biological replicates
[3] = biological target: T1, B Cell Lymphoma-9 (BCL9) (human (endogenous in DCIS.COM and SUM225)); experiment: proximity ligation; Duolink PLA on fixed, Triton X-100 permeabilised DCIS.COM cells; mouse anti-P(S727) STAT3 and rabbit anti-BCL9 primary antibodies; endogenous proteins
[4] = biological target: STAT3 (human (endogenous in DCIS.COM and SUM225)) (UniProt P40763); experiment: co-IP; whole-cell extracts of DCIS.COM and SUM225; immunoprecipitation with anti-BCL9 or (reverse) anti-STAT3 antibody, control IgG; Western blot

| binding [2] | Molecule | other results |
| --- | --- | --- |
|  | STAT3 (from UniProt P40763 1-770) | binding [1]: binds |
| binds | mutant S727A-STAT3 (from UniProt P40763 1-770) |  |
| binds | mutant Y705F-STAT3 (from UniProt P40763 1-770) |  |
| binds | non-mutated wild-type (WT)-STAT3 (from UniProt P40763 1-770) |  |
|  | phosphoserine 727 STAT3 (PS-727-STAT3) (from UniProt P40763 1-770) | binding [3]: binds |
|  | B Cell Lymphoma-9 (BCL9) (protein, UniProt O00512 1-1426) MHSSNPKVRSSPSGNTQSSPKSKQEVMVRPPTVMSPSGNPQLDSKFSNQGKQGGSASQSQPSPCDSKSGGHTPKALPGPGGSMGLKNGAGNGAKGKGKRERSISADSFDQRDPGTPNDDSDIKECNSADHIKSQDSQHTPHSMTPSNATAPRSSTPSHGQTTATEPTPAQKTPAKVVYVFSTEMANKAAEAVLKGQVETIVSFHIQNISNNKTERSTAPLNTQISALRNDPKPLPQQPPAPANQDQNSSQNTRLQPTPPIPAPAPKPAAPPRPLDRESPGVENKLIPSVGSPASSTPLPPDGTGPNSTPNNRAVTPVSQGSNSSSADPKAPPPPPVSSGEPPTLGENPDGLSQEQLEHRERSLQTLRDIQRMLFPDEKEFTGAQSGGPQQNPGVLDGPQKKPEGPIQAMMAQSQSLGKGPGPRTDVGAPFGPQGHRDVPFSPDEMVPPSMNSQSGTIGPDHLDHMTPEQIAWLKLQQEFYEEKRRKQEQVVVQQCSLQDMMVHQHGPRGVVRGPPPPYQMTPSEGWAPGGTEPFSDGINMPHSLPPRGMAPHPNMPGSQMRLPGFAGMINSEMEGPNVPNPASRPGLSGVSWPDDVPKIPDGRNFPPGQGIFSGPGRGERFPNPQGLSEEMFQQQLAEKQLGLPPGMAMEGIRPSMEMNRMIPGSQRHMEPGNNPIFPRIPVEGPLSPSRGDFPKGIPPQMGPGRELEFGMVPSGMKGDVNLNVNMGSNSQMIPQKMREAGAGPEEMLKLRPGGSDMLPAQQKMVPLPFGEHPQQEYGMGPRPFLPMSQGPGSNSGLRNLREPIGPDQRTNSRLSHMPPLPLNPSSNPTSLNTAPPVQRGLGRKPLDISVAGSQVHSPGINPLKSPTMHQVQSPMLGSPSGNLKSPQTPSQLAGMLAGPAAAASIKSPPVLGSAAASPVHLKSPSLPAPSPGWTSSPKPPLQSPGIPPNHKAPLTMASPAMLGNVESGGPPPPTASQPASVNIPGSLPSSTPYTMPPEPTLSQNPLSIMMSRMSKFAMPSSTPLYHDAIKTVASSDDDSPPARSPNLPSMNNMPGMGINTQNPRISGPNPVVPMPTLSPMGMTQPLSHSNQMPSPNAVGPNIPPHGVPMGPGLMSHNPIMGHGSQEPPMVPQGRMGFPQGFPPVQSPPQQVPFPHNGPSGGQGSFPGGMGFPGEGPLGRPSNLPQSSADAALCKPGGPGGPDSFTVLGNSMPSVFTDPDLQEVIRPGATGIPEFDLSRIIPSEKPSQTLQYFPRGEVPGRKQPQGPGPGFSHMQGMMGEQAPRMGLALPGMGGPGPVGTPDIPLGTAPSMPGHNPMRPPAFLQQGMMGPHHRMMSPAQSTMPGQPTLMSNPAAAVGMIPGKDRGPAGLYTHPGPVGSPGMMMSMQGMMGPQQNIMIPPQMRPRGMAADVGMGGFSQGPGNPGNMMF | binding [4]: binds |
